Drawing on publication PMC4558130, this text covers binding for one substance.

Protein sequences, listed by entry. Tags and fused reporters are not part of them. Lines headed by an entry give the natural chain unless they say otherwise; changes in a name come on top.
UniProt P55042: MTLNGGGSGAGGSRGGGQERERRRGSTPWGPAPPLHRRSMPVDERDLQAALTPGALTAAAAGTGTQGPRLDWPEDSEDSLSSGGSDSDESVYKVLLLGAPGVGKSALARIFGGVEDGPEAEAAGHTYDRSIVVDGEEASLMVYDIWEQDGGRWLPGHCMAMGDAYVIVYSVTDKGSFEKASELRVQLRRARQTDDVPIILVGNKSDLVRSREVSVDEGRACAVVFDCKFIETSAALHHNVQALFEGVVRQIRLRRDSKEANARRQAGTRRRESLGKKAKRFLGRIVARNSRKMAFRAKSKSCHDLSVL
UniProt Q04206: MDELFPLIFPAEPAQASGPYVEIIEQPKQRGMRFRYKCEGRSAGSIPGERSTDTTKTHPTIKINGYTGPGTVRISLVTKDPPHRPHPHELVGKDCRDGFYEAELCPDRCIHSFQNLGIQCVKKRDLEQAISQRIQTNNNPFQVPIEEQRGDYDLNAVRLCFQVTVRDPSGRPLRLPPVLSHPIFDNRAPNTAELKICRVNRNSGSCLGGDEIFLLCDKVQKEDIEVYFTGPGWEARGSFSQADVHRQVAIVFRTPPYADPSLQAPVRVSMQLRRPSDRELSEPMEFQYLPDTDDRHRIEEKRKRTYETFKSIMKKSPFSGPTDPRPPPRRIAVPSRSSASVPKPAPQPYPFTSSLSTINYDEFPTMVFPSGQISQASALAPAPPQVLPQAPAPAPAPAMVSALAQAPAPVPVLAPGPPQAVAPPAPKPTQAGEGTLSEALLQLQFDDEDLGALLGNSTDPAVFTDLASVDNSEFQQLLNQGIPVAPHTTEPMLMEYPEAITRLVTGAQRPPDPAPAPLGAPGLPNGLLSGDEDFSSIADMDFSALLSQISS

The target in the test is RRAD-ΔC249-Flag (human) (UniProt P55042). Description: co-IP; H1299 cells expressing RRAD-Flag (WT or deletion mutant) and p65-HA; lysates in NP-40 buffer (50mM Tris-HCl pH 7.5, 1% NP-40, 150mM NaCl, 5 mM EDTA); IP with anti-Flag M2 or anti-HA overnight; Western blot. For orientation: In western blotting, separated proteins are transferred to a membrane and probed.

Results are given in words; binding and its absence hold for the method and conditions named. In cells and extracts the contact can be indirect. A result given as binding can be weak or reduced; the word gives no strength.

On to p65-HA (from UniProt Q04206 1-551), for which the binding entry is “binds”.
